In publication PMC12533369, “Citrullination of AKT2 Catalyzed by PAD1 Facilitates the Maintenance of Stemness Characteristics of Ovarian Cancer Stem‐Like Cells in Ovarian Cancer” (Advanced Science, 2025):
Results are given in words; binding and its absence hold for the method and conditions named. Binding seen in cells or lysates may run through a third protein. Here binding means that the protein was enriched with, or labelled near, the bait; the list need not be complete.

Chains of the proteins cited; added tags and fusions are not shown.
UniProt P31751: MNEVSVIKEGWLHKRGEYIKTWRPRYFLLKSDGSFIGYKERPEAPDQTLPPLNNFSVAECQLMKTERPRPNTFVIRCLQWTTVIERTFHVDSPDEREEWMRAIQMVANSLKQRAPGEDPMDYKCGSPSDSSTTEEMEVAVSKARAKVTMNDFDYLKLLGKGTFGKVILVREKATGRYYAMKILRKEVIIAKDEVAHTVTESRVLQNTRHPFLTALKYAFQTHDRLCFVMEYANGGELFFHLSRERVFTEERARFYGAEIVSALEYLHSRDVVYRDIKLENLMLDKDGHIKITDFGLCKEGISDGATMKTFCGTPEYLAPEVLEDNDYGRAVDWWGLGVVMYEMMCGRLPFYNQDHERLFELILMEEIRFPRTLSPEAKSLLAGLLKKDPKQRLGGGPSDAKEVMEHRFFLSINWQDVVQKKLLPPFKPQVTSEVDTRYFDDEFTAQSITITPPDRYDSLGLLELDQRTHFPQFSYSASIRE

Target: T1, peptidylarginine deiminase 1 (PAD1), endogenous (human (endogenous in OVCAR3)) (UniProt Q9ULC6)
T1 sequence: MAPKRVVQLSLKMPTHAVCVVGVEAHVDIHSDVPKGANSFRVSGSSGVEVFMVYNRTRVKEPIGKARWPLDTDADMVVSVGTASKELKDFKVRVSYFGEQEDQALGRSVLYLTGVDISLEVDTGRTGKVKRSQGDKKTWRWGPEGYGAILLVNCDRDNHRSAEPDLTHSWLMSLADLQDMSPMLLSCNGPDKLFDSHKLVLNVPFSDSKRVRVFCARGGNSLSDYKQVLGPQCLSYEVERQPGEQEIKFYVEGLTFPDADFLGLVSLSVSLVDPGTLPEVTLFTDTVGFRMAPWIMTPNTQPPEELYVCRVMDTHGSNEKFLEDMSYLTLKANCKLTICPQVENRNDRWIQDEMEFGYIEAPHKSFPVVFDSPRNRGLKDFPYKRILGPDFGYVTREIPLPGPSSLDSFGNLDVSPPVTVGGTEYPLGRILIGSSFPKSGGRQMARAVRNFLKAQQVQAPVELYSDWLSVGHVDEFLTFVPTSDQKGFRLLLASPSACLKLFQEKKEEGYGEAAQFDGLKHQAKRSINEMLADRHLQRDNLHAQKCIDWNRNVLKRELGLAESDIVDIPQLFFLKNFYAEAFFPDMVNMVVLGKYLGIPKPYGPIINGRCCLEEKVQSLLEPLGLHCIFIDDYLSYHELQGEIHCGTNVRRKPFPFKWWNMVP
Assay: affinity purification with mass spectrometry; co-immunoprecipitation from OVCAR3 cells with anti-PAD1 antibody, then LC-MS/MS; endogenous proteins

- binding: binds
Substance: AKT2, endogenous (from UniProt P31751 1-481) (enzyme)
